Among the data in the supplement of paper PMC10849652 are log2 fold change values, retold here.

Amino acid sequences for entries named in this document (tags omitted). A change or cut given only in a name is not applied to a line headed by its entry.
UniProt Q9H6X4: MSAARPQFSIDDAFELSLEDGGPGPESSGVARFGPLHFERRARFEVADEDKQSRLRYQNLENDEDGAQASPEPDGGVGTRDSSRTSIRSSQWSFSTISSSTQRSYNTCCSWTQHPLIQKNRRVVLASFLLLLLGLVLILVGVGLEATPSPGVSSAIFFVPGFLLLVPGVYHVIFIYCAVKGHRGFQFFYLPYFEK
UniProt Q5SWH9: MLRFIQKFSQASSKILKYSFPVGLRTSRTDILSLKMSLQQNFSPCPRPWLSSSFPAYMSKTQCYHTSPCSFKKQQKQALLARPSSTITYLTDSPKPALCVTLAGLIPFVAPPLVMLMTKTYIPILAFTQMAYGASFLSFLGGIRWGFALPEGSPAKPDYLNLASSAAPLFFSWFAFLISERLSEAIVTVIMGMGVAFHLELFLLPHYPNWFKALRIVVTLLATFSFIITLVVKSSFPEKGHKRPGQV
UniProt Q53S58: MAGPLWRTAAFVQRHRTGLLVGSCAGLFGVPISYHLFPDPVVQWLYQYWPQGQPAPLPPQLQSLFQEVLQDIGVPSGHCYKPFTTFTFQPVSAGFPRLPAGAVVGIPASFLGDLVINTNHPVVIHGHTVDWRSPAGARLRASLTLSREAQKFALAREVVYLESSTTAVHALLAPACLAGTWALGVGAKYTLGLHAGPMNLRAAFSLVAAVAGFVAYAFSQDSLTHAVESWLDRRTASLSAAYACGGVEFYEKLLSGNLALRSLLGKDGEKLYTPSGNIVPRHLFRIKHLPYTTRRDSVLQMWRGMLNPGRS
UniProt Q9NR96: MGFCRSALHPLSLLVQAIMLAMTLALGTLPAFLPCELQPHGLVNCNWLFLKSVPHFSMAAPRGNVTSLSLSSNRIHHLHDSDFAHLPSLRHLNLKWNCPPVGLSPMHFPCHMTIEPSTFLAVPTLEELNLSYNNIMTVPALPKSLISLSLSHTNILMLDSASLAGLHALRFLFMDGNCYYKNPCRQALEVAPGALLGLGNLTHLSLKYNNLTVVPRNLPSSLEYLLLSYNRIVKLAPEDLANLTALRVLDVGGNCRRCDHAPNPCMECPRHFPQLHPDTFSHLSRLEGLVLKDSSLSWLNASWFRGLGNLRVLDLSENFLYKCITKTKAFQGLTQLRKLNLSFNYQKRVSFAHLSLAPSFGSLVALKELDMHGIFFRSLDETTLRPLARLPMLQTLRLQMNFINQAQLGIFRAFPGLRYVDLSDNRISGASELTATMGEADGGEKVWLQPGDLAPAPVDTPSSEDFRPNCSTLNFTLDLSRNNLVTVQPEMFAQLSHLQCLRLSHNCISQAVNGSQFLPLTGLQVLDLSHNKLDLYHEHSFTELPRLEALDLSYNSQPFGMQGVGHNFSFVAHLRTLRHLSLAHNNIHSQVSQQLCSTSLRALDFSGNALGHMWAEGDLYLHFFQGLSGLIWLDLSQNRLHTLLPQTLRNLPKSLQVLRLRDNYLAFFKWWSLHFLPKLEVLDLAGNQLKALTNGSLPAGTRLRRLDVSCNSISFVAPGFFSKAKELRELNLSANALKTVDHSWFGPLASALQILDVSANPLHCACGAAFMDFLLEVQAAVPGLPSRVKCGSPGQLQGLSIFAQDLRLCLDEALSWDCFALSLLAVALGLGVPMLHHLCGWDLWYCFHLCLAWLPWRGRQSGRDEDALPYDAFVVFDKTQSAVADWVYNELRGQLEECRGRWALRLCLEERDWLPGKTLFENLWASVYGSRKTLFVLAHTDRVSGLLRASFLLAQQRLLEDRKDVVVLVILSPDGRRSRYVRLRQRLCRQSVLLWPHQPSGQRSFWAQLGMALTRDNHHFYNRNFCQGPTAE
UniProt A0PJW6: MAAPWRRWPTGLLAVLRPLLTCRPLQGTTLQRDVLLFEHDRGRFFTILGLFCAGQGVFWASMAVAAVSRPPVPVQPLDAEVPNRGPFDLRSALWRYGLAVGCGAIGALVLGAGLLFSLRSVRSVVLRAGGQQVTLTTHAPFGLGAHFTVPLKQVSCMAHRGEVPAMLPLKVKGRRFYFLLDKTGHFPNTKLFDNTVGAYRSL
UniProt Q9NWH2: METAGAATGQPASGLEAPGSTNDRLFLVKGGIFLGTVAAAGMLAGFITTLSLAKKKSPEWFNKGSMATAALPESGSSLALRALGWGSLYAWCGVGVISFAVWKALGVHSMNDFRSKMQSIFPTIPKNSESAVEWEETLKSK
UniProt Q9NQ34: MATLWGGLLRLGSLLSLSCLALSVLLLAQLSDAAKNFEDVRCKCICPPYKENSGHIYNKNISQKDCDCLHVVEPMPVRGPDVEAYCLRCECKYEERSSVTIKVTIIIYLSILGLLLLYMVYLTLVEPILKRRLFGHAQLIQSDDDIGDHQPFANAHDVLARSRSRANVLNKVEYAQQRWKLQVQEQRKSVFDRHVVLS
UniProt Q96K49: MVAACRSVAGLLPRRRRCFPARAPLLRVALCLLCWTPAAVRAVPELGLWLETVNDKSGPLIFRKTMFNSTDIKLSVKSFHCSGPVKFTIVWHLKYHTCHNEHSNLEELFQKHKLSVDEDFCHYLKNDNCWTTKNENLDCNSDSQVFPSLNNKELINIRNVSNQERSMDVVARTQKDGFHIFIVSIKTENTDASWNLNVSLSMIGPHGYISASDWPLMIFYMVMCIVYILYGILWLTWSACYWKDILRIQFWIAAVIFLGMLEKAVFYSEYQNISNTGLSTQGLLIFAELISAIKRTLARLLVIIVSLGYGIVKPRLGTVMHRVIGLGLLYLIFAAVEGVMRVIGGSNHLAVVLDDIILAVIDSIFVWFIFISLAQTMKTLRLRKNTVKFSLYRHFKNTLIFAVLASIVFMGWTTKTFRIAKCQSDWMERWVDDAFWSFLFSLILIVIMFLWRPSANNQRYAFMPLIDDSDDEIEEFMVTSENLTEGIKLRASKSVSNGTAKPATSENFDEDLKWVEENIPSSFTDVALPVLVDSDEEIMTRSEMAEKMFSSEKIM
UniProt Q8NDZ6: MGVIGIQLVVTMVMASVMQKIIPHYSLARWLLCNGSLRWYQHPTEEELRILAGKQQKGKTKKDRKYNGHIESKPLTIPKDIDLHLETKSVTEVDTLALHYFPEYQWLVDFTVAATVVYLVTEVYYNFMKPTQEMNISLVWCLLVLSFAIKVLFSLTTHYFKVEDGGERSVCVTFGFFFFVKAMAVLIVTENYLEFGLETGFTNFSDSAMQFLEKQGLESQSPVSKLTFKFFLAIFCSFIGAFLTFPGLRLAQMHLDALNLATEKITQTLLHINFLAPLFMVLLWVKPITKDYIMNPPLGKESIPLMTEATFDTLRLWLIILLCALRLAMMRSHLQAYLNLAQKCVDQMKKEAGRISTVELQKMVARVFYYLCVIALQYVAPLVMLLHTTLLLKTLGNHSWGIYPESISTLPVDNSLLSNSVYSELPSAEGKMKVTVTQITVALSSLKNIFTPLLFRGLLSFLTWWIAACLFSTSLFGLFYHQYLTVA
UniProt Q9P0S9: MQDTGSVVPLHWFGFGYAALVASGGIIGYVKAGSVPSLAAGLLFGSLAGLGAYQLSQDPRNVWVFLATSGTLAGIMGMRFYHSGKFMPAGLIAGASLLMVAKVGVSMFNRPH
UniProt P21580: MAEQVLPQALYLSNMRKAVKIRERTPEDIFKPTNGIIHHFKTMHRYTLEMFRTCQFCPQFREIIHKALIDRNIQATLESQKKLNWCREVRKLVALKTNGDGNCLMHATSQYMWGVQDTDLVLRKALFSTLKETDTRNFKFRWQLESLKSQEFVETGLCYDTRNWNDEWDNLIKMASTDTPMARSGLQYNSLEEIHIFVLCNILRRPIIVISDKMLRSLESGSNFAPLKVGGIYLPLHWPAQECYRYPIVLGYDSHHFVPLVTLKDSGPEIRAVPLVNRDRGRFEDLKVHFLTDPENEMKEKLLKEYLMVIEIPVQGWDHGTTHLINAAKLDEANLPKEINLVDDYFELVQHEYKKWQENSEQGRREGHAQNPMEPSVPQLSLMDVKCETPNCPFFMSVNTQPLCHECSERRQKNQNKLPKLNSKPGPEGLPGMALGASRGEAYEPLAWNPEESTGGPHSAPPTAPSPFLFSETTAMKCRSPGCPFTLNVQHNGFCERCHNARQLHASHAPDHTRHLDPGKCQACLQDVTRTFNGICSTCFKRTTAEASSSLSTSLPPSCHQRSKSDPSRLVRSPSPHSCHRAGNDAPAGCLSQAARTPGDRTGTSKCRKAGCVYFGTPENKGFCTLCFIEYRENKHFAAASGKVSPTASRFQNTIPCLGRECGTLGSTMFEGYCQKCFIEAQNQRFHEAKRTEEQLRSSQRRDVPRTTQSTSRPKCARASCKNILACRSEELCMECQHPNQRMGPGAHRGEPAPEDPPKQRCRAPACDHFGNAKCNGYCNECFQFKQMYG
UniProt Q9NS93: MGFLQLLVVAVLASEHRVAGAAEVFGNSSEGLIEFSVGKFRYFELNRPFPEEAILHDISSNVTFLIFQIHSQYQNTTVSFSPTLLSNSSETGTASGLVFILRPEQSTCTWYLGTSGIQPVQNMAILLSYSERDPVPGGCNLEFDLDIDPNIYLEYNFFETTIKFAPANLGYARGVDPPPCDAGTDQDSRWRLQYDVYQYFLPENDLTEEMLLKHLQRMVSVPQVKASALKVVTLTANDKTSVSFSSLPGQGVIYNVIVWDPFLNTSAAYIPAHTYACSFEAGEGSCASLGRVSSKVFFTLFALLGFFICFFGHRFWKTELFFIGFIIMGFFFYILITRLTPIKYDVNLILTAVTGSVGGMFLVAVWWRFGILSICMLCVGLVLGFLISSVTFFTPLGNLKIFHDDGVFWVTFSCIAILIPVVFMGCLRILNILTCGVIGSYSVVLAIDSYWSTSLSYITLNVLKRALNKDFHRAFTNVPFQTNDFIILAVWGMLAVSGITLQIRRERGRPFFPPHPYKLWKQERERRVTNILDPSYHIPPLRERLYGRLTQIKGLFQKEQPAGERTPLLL
UniProt Q7Z403: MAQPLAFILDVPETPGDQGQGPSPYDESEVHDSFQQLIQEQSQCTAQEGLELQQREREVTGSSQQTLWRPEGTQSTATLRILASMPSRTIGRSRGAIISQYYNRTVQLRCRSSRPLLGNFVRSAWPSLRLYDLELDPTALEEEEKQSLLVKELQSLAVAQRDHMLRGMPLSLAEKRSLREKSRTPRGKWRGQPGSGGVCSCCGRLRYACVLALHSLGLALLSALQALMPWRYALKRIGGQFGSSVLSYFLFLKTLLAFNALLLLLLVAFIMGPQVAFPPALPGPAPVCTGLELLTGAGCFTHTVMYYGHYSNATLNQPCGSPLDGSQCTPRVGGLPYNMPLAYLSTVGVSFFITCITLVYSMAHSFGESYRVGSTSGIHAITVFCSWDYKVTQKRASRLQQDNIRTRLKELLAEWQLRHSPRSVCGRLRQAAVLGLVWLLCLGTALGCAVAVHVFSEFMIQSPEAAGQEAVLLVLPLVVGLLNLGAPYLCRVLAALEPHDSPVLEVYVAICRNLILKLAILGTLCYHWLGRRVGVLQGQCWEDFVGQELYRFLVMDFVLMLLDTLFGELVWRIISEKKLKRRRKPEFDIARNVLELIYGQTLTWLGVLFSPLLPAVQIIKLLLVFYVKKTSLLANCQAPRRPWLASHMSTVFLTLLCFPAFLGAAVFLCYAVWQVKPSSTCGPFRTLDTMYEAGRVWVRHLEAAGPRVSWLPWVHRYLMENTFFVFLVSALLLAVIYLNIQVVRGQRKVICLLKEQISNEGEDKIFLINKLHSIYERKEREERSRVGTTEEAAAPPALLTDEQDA
UniProt Q8IY95: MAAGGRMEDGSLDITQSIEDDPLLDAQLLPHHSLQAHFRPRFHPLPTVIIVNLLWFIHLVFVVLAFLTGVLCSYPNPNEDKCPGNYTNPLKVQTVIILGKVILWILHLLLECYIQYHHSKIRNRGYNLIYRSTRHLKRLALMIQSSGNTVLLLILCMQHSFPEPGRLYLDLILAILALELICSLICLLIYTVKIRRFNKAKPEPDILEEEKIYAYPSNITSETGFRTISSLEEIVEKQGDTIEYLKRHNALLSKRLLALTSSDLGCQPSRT
UniProt Q96HV5: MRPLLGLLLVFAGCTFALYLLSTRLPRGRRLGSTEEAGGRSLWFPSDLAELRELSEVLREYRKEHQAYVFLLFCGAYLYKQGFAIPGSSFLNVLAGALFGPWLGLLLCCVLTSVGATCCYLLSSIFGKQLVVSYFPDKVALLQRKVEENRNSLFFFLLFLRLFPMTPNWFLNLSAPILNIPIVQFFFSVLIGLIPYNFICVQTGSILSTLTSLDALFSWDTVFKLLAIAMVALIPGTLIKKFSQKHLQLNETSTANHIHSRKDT
UniProt Q969X1: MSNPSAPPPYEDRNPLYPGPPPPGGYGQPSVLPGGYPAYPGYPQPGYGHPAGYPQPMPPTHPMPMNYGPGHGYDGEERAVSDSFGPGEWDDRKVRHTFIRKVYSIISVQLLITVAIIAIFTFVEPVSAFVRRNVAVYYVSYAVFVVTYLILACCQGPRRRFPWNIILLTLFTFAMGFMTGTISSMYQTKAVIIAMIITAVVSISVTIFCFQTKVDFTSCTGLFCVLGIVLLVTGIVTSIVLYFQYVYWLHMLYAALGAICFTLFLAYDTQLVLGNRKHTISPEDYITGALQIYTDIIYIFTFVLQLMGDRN

Some of the results follow. Residues, ends and D or L forms follow the SMILES beside them. *: point of attachment. Cbz = O=C(OCc1ccccc1)*

Compound in this experiment: CC(C)C[C@@H](C=O)NC(=O)[C@H](CC(C)C)NC(=O)[C@H](CC(C)C)NC(=O)OCc1ccccc1
Description: log2 fold change, soluble protein after heating vs DMSO (PISA); higher = thermal stabilisation; K562 cells, 10 uM, 30 min; active = over 0.2 and 3.5 SD of the protein, either way, in both replicates (recomputed). The method in brief:
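Thermal stability values are relative to control samples and come from duplicates. They are expressed as log2 fold changes. For measurement, K562 cells (2×10^6 cells/mL) received 10 μM compound for 30 min, and aliquots were heated for 3 min over 48°C-58°C, pooled, and extracted at 4°C in PBS with 0.5% NP-40. Soluble protein, the supernatant after 21,000xg for 90 min, was quantified by TMTpro 16plex LC-MS/MS with equalised channel sums.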
For TMEM134 (UniProt Q9H6X4), the log2 fold change is inactive: 0.073.
As to TMEM69 (UniProt Q5SWH9), the log2 fold change is inactive: 0.019.
For TMEM177 (UniProt Q53S58), the log2 fold change was inactive: 0.045.
Consider TMEM120B (UniProt A0PK00), for which the log2 fold change was inactive: -0.106.
To TMEM147 (UniProt Q9BVK8) belongs inactive: -0.033; to TLR9 isoform 4 (UniProt Q9NR96), inactive: -0.016; to TMEM223 (UniProt A0PJW6), inactive: 0.
As to TMEM242 (UniProt Q9NWH2), the log2 fold change was inactive: 0.033.
Take TNFRSF10A (UniProt O00220): the log2 fold change is inactive: 0.078.
For the target TMEM9B (UniProt Q9NQ34), the log2 fold change was inactive: -0.006.
Take TMEM268 isoform 3 (UniProt Q5VZI3): the log2 fold change is inactive: -0.016.
On to TMEM87B (UniProt Q96K49), for which the log2 fold change is inactive: -0.007.
As to TMEM161B (UniProt Q8NDZ6), the log2 fold change is inactive: 0.015.
As to TMEM14C (UniProt Q9P0S9), the log2 fold change was inactive: -0.008.
Consider TM6SF1 (UniProt Q9BZW5), for which the log2 fold change was inactive: 0.019.
For TMEM104 (UniProt Q8NE00), the log2 fold change is inactive: 0.082.
Turning to TNFAIP3 (UniProt P21580), the log2 fold change was inactive: 0.064.
With TM7SF3 (UniProt Q9NS93), the log2 fold change was inactive: 0.01.
With TMC6 (UniProt Q7Z403), the log2 fold change was inactive: 0.355.
To TMEM192 (UniProt Q8IY95) belongs inactive: 0.029; to TMEM41A (UniProt Q96HV5), inactive: -0.079.
With TMBIM1 (UniProt Q969X1), the log2 fold change is inactive: -0.166.
For TLK2 isoform 2 (UniProt Q86UE8) the value was inactive: 0.025.
